Laboratory results taken from US20200031919A1 (SUZHOU KANOVA BIOPHARMACEUTICAL, published 2020).
No constants are given. Whether binding was seen depends on the method and setting. Some entries that bind do so weakly or less than the wild type.

Experiments:
[1] = target: cynomolgus IL-17A (cynomolgus); assay: ELISA, cynomolgus IL-17A coated
cynomolgus IL-17F = target: T1, cynomolgus IL-17F (cynomolgus, UniProt G7P4V0 31-163); assay: ELISA, cynomolgus IL-17F coated
T1 construct: also called cynomolgus 17F
T1 sequence: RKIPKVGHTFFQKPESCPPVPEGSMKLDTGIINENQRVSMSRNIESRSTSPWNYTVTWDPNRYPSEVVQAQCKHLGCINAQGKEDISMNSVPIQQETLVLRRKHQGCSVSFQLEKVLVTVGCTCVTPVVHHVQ

- binding [1]: binds
- binding (cynomolgus IL-17F): binds
B1: anti-IL17A/F antibody hIgG VH1-1/VL5 (antibody, V domains shown)
VH: QFQLVQSGAEVKKPGASVKVSCKASGYTFTDYNLNWVRQAPGKGLEWMGVIHPDYGTTSYNQKFKDRVTMTVDTSTSTVYMELSSLRSEDTAVYYCVRYDYGDAMDYWGQGTLVTVSS
VL: DIVMTQSPLSLSVTPGQPASISCRSSQSLVHSNGNTYLHWYLQKPGQPPQLLIYKVSNRFSGVPDRFSGSGSGTDFTLKISRVEAEDVGVYYCSQSTHVPLTFGQGTKLEIKR
notes: also called VH1-1/VL5 mAb; hIgGc VH1-1/VL5
